Results published in PMC6327505, “Adaption to glucose limitation is modulated by the pleotropic regulator CcpA, independent of selection pressure strength”.

Assays:
[1] = biological target: T1, CcpA-Ile19 (evolved, 445C1) M19I (Lactococcus lactis MG1363 (evolved strain 445C1)) (UniProt A2RJC5); assay: EMSA; conditions: 100-800 nM CcpA, 4 nM DNA, EMSA: 20 mM Tris-HCl pH 8, 100 mM KCl, 10 mM MgCl2, 1 mM EDTA, 1 mM DTT, 5% glycerol, 40 ug/ml BSA, 4 nM Cy3-DNA, 30 C 20 min, 7.5% native PAGE in TBE, recombinant protein, protein details: N-terminal 6xHis (pQE30), label: 5'-Cy3 on (+) strand
T1 sequence (looked up, limits assumed): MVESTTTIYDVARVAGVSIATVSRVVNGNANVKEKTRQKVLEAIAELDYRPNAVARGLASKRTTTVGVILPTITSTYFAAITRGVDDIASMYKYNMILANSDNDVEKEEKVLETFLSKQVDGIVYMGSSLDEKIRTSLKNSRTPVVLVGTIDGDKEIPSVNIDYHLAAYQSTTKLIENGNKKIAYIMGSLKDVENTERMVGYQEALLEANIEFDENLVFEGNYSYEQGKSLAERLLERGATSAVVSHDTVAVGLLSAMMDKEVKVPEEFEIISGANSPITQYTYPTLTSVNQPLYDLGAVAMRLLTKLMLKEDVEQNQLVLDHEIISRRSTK

[2] = biological target: T2, CcpA-Met19 (wild type, Genr0) (Lactococcus lactis MG1363 (strain Genr0)) (UniProt A2RJC5); assay: EMSA; conditions: 100-800 nM CcpA, 4 nM DNA, slightly lower affinity than Ile19; EMSA: 20 mM Tris-HCl pH 8, 100 mM KCl, 10 mM MgCl2, 1 mM EDTA, 1 mM DTT, 5% glycerol, 40 ug/ml BSA, 4 nM Cy3-DNA, 30 C 20 min; 7.5% native PAGE in TBE; recombinant protein; protein details: N-terminal 6xHis (pQE30); label: 5'-Cy3 on (+) strand
T2 sequence (looked up, limits assumed): T1 sequence (looked up, limits assumed) with I19M

## AAAAAATAGATAACGCTTGCATTATGAA (double strand) [ptcB cre (F1/R1)]
[1]; affinity increased vs Met19, most pronounced
  binding result: binds

## TTCTTACTGTTAGCGCTTTCAGTACG (double strand) [syn cre (perfect cre site)]
[1]; affinity increased vs Met19
  binding result: binds

## ACCACAATGTAAAAGCTTACAATTGCT (double strand) [mtlD cre]
[2]
  binding result: binds more weakly

Where a chain is given by its changes, count along the chain named. The exact form of at least one protein or probe is not confirmed. For part of these data: A weaker result is weaker than the reference pair of the same experiment. At least one verdict was read from the data and is not stated in words by the source. Tags and fusion partners may be left off the protein sequences shown.
